Data reported in the supplement of paper PMC11006884.
Only a part is listed here, and it is no random draw. The data scatter; read single values as rough.

By UniProt entry, the sequences of proteins in these tests, tags left out. Where a name states a change or a piece, a line headed by the entry shows the natural chain unless it says otherwise.
UniProt P31943: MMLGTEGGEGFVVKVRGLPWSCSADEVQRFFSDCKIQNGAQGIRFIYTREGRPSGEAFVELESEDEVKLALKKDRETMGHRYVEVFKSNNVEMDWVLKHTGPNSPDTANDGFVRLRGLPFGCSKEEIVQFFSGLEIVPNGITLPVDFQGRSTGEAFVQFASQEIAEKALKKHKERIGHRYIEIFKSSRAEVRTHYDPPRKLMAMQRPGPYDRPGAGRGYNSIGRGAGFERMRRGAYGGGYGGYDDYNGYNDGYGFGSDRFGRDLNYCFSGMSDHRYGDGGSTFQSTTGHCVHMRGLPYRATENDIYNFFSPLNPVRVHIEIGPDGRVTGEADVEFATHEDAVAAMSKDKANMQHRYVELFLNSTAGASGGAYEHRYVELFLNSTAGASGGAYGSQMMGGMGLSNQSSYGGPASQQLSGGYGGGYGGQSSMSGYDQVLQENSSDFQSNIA
UniProt P39880: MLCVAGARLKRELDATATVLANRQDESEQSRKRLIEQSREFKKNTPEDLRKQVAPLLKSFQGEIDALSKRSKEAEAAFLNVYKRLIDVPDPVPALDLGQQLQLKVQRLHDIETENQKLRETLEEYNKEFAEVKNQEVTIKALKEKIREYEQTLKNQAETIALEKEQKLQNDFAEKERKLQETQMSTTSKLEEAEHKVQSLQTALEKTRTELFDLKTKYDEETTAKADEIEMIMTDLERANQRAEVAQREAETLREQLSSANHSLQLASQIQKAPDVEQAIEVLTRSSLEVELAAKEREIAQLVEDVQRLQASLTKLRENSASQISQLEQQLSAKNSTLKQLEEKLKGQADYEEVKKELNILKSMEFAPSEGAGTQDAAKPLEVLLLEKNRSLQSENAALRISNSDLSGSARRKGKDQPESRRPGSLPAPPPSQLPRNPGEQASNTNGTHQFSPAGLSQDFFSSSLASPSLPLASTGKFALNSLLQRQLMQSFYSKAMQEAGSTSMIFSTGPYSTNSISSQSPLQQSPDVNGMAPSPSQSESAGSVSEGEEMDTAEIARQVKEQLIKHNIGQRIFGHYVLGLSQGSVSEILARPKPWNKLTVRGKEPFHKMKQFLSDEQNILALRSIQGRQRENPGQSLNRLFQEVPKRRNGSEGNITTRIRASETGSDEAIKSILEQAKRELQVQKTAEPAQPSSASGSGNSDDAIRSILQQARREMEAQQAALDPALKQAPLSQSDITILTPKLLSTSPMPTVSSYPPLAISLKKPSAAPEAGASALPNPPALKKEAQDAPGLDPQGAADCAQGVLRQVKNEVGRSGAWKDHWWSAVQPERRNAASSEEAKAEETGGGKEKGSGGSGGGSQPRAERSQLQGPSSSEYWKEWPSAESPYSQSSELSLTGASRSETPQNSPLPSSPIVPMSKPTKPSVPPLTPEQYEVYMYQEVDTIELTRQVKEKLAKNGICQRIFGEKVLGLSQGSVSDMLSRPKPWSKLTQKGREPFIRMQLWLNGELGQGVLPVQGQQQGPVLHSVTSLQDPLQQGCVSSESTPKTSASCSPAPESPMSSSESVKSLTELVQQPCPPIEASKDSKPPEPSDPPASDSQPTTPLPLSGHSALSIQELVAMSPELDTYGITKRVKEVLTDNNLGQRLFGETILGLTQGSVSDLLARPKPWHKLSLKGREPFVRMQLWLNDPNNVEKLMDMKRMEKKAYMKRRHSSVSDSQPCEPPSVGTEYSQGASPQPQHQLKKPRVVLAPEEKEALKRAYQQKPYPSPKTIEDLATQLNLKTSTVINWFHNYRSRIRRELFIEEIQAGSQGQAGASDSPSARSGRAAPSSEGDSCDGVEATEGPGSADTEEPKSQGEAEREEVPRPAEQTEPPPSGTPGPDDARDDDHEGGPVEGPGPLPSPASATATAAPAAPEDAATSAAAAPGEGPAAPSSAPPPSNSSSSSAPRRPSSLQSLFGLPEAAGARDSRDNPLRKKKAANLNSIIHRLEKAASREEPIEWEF
UniProt P31751: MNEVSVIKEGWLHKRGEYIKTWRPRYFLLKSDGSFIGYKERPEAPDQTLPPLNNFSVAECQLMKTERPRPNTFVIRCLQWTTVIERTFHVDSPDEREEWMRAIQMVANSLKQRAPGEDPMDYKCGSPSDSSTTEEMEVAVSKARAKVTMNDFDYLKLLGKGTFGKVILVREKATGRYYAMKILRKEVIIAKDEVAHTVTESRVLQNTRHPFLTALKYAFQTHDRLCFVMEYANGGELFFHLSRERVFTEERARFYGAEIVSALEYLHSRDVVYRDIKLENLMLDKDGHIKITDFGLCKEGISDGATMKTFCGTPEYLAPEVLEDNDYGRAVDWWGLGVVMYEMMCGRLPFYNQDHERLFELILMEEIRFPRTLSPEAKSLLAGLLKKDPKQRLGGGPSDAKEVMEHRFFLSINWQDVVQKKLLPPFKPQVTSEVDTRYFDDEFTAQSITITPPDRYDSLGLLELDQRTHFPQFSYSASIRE
UniProt P36969, whole entry, looked up: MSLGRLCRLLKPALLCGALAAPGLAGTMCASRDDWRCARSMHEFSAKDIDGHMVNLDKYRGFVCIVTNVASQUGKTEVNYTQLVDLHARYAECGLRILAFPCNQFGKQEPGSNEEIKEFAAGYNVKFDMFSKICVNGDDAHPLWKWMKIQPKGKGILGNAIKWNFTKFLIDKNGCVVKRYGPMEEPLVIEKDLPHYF
UniProt P35610: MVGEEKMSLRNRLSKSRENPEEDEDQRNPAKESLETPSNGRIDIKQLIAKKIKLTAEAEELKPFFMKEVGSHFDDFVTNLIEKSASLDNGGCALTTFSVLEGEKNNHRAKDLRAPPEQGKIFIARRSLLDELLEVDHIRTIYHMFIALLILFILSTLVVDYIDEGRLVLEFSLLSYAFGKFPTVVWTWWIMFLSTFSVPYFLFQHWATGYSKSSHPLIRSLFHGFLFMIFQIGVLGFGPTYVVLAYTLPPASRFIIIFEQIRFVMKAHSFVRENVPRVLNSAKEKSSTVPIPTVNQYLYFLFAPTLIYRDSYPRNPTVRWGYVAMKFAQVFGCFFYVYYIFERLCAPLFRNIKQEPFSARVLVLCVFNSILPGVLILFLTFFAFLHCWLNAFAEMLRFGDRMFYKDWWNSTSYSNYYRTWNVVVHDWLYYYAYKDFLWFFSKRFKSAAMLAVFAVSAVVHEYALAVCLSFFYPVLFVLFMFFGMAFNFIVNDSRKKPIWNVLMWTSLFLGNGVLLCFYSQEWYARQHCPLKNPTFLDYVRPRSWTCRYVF
UniProt P39748, whole entry, looked up: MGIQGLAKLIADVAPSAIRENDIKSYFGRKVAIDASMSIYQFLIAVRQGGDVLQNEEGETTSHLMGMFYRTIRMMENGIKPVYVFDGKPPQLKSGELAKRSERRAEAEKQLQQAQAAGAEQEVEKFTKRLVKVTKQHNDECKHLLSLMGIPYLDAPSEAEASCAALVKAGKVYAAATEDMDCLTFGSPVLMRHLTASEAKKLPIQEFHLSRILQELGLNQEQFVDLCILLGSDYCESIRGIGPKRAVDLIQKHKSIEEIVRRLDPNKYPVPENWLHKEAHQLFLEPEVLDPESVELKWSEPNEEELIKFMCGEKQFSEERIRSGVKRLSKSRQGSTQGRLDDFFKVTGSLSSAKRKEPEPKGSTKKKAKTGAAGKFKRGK
UniProt P33176: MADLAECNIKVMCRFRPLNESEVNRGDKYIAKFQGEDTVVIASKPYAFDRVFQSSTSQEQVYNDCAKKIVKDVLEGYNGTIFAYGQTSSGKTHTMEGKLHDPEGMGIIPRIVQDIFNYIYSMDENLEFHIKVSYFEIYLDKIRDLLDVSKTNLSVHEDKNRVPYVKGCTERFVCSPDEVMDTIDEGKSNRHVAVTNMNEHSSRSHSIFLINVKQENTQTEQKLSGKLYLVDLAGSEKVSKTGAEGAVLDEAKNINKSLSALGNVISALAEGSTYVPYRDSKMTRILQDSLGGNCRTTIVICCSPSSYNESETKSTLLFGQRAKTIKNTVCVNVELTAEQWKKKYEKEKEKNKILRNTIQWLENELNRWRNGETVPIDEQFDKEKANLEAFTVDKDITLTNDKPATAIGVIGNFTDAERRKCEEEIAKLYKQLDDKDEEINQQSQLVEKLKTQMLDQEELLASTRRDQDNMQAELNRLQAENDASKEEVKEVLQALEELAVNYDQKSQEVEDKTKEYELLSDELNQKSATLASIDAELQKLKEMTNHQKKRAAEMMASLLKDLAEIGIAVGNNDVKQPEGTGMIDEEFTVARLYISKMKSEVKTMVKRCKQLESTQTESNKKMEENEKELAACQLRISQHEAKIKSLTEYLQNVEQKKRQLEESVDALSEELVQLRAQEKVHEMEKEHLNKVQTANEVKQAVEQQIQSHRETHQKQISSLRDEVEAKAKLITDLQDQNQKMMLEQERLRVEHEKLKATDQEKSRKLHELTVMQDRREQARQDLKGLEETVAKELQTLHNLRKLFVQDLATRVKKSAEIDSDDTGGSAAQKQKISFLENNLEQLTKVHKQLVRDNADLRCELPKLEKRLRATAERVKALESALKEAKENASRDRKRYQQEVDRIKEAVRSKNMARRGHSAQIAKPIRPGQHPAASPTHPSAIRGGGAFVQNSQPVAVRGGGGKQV
UniProt P30153, whole entry, looked up: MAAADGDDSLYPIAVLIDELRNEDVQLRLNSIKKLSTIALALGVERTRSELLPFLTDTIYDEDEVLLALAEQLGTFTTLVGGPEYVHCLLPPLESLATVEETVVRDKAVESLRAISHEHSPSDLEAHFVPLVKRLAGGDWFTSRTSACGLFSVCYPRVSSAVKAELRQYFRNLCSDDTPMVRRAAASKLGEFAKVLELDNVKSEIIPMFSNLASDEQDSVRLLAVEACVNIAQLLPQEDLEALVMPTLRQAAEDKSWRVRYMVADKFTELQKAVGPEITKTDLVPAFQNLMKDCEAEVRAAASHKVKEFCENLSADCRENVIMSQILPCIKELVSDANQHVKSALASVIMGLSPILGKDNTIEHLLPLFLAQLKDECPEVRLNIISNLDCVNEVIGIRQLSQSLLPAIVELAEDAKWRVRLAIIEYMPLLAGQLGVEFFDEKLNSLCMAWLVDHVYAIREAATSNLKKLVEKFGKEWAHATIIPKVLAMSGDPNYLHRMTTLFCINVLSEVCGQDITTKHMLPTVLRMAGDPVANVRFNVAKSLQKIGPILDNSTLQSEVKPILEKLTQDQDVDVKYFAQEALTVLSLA
UniProt P30520: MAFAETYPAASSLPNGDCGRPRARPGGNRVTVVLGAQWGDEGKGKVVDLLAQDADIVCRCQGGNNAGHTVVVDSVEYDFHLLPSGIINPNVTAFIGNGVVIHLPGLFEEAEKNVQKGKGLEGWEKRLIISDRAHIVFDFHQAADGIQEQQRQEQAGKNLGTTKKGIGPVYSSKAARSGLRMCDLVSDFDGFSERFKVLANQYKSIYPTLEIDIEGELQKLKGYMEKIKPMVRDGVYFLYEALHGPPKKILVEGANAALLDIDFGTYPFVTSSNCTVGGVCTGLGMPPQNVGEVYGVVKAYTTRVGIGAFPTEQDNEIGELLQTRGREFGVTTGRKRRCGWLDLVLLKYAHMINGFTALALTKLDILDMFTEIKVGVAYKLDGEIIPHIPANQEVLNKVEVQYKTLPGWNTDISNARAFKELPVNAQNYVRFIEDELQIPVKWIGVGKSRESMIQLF
UniProt P37802: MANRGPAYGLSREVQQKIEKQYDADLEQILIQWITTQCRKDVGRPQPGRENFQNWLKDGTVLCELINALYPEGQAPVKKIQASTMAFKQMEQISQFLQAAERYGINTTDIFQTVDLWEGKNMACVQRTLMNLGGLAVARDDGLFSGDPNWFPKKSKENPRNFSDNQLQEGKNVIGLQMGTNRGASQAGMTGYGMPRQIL
UniProt P40925: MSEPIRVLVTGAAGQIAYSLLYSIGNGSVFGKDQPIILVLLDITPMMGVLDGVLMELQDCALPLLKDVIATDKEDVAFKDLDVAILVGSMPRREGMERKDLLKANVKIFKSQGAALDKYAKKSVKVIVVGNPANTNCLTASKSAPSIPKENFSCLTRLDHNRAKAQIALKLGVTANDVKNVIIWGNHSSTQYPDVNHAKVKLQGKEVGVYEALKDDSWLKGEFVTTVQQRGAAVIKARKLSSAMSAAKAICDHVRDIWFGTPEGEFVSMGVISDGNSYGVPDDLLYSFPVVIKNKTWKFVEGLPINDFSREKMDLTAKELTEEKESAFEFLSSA
UniProt P36551: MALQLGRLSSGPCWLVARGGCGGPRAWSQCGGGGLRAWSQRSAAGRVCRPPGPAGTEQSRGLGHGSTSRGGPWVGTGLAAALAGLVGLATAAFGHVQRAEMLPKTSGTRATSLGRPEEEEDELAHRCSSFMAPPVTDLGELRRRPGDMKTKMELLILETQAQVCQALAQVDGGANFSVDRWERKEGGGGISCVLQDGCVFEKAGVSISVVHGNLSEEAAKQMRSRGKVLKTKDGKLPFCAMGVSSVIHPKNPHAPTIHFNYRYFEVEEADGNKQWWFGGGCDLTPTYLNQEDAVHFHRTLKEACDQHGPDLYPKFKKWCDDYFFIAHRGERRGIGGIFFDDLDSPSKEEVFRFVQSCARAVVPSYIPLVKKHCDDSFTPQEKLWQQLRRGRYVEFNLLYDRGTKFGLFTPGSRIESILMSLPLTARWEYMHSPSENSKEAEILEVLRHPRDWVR

Compound: COC(=O)/C=C/c1ccccc1 [methyl cinnamate]
Test: log2 ratio of iodoacetamide-alkyne labeling of the cysteine site, DMSO over compound (competition); higher = stronger covalent engagement of the cysteine by the compound, active = 1 or more
Conditions: 500 µM; treatment time 1 h; system: HEK293T cell lysate
Outline: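 The log2 competition ratio per cysteine is defined as mean reporter intensity in control channels over mean reporter intensity in compound channels. Lysate from HEK293T cells (2 mg/mL) received electrophile (500 µM) or vehicle for 1 h at ambient temperature, followed by iodoacetamide alkyne for 1 h. Samples were clicked to sCIP-TMT reagents, pooled, trypsin-digested overnight at 37 °C, streptavidin-enriched, acid-eluted and run on Orbitrap Eclipse LC-MS/MS with FAIMS, with quantification in FragPipe. Three replicates with duplicate channels were used, and any cysteine quantified in only one replicate was excluded.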

Target	log2 ratio of iodoacetamide-alkyne labeling
SERPINB6 C350 (UniProt P35237)	inactive: -0.173
LRPPRC C1043 (UniProt P42704)	inactive: -0.0107
ALDH1B1 C478 (UniProt P30837)	inactive: -0.347
HSPA4 C146 (UniProt P34932)	inactive: 0.013
WNT5A C182 (UniProt P41221)	inactive: -0.086
LRPPRC C113 (UniProt P42704)	inactive: 0.0998
HNRNPH1 C122 (UniProt P31943)	inactive: -0.107
CUX1 C1040 (UniProt P39880)	inactive: 0.624
AKT2 C124 (UniProt P31751)	inactive: 0.332
ACAA2 C179 (UniProt P42765)	inactive: 0.296
UQCRC1 C453 (UniProt P31930)	inactive: 0.0415
UQCRC1 C410 (UniProt P31930)	inactive: 0.0727
CTNNA1 C461 (UniProt P35221)	inactive: 0.364
RPL3 C253 (UniProt P39023)	inactive: 0.171
HNRNPH1 C290 (UniProt P31943)	inactive: -0.177
RPL9 C74 (UniProt P32969)	inactive: 0.233
GPX4 C134 (UniProt P36969)	inactive: 0.21
AKT2 C311 (UniProt P31751)	inactive: 0.348
MYH9 C988 (UniProt P35579)	inactive: 0.281

Target	log2 ratio of iodoacetamide-alkyne labeling
RPL4 C250 (UniProt P36578)	inactive: -0.154
SOAT1 C92 (UniProt P35610)	inactive: 0.277
FEN1 C141 (UniProt P39748)	inactive: 0.67
KIF5B C330 (UniProt P33176)	inactive: 0.281
PPP2R1A C377 (UniProt P30153)	inactive: 0.419
PHB C69 (UniProt P35232)	inactive: -0.0362
AGL C608 (UniProt P35573)	inactive: 0.104
EIF1 C69 (UniProt P41567)	inactive: 0.231
UniProt P30520_C18	inactive: 0.154
ARL3 C118 (UniProt P36405)	inactive: 0.243
AKT2 C297 (UniProt P31751)	inactive: 0.142
MCM4 C212 (UniProt P33991)	inactive: 0.246
RPL13A C38 (UniProt P40429)	inactive: 0.0615
TAGLN2 C38 (UniProt P37802)	inactive: -0.0426
MDH1 C251 (UniProt P40925)	inactive: 0.303
SHMT2 C412 (UniProt P34897)	inactive: 0.131
EIF2S3 C96 (UniProt P41091)	inactive: -0.26
CPOX C127 (UniProt P36551)	inactive: 0.056

Given with each value named: part of the list above.
SOAT1 C92 (UniProt P35610)
  log2 ratio of iodoacetamide-alkyne labeling: inactive: 0.277
FEN1 C141 (UniProt P39748)
  log2 ratio of iodoacetamide-alkyne labeling: inactive: 0.67
